This note sets out measurements from PubChem BioAssay AID256 (DTP/NCI, 2004).

The list shows only some results of the screen, not a fair sample: it is rich in T/C values a quarter to a half above the control, in often repeated tests (any T/C) and in doses without a T/C. Further doses and runs are listed elsewhere. T/C: endpoint of the treated group in % of that of the vehicle group. Some doses have a count of surviving animals in place of a T/C: the source files T/C as zero there, which appears to mark a toxic dose or a test without result, not a measured value. Some survivor counts are full or nearly so, which does not show that the dose was tolerated: survival well below the control is almost never listed, so the zero probably covers shortened survival too. Survivors were counted at the toxicity check, usually on the fifth day, unless a day is given; later deaths do not show. Schedules are NCI's codes, taken here to give the interval after Q, in days (D) or hours (H), and the number of doses after X. Some doses were run more than once; the results are listed from low to high. Some schedule codes hold Z or #, which are not explained here. Where survival is the endpoint, this PubChem deposit counts one and a half times the control or more as active, and values a quarter to a half above the control carry no call in these data; other NCI protocols may use other cut-offs. Some T/C values are followed by the survivors on the day toxicity was checked, most often the fifth; without a count, all were alive then.

This test deals with CD2F1 mice, L1210 leukemia ip, survival T/C. Put plainly: NCI In Vivo Anticancer Drug Screen. Data for tumor model L1210 Leukemia (intraperitoneal) in CD2F1 (CDF1) mice. To be noted: higher T/C = longer survival. As for the experimental part: The antitumor activity of compounds was measured in mice bearing transplantable tumors. Survival or tumor size were measured and the results are expressed as the measurement made in the treated group (T) divided by the measurement made in the vehicle treated control group (C). The tumor model used in this assay is L1210 Leukemia (intraperitoneal) in CD2F1 (CDF1) mice

[1] abbreviates: T/C endpoint: mean survival time, dose: 400.0 mg/kg/injection, schedule: Q01DX009 (ip), vehicle: saline with Tween-80.
The mark [2] stands for this setting: T/C endpoint: mean survival time, dose: 400.0 mg/kg/injection, schedule: Q01DX009 (ip), vehicle: saline.
[3] abbreviates: T/C endpoint: mean survival time, dose: 200.0 mg/kg/injection, schedule: Q01DX009 (ip), vehicle: saline with Tween-80.
[4] abbreviates: T/C endpoint: mean survival time, dose: 400.0 mg/kg/injection, schedule: Q01DX001 (ip), vehicle: saline with Tween-80.
[5] abbreviates: T/C endpoint: mean survival time, dose: 200.0 mg/kg/injection, schedule: Q01DX001 (ip), vehicle: saline with Tween-80.
Setting [6] is: T/C endpoint: mean survival time, dose: 3.75 mg/kg/injection, schedule: Q01DX009 (ip), vehicle: distilled water + alcohol.
Where [7] appears, read: T/C endpoint: mean survival time, dose: 100.0 mg/kg/injection, schedule: Q04DX003 (ip), vehicle: saline with Tween-80.
Setting [8] is: T/C endpoint: mean survival time, dose: 400.0 mg/kg/injection, schedule: Q04DX003 (ip), vehicle: saline with Tween-80.

Turning to `O=[N+]([O-])c1cc2c(c([N+](=O)[O-])c1)OCOC2`, the survivor count under setting [1] is listed as 0 of 6.
As to `Cc1cccc(CCl)n1`, under setting [2], the survivor count was 1 of 6.
`Cc1ccc(C(=O)NCCCOc2ccc(N3C(N)=NC(N)=NC3(C)C)cc2Cl)cc1S(=O)(=O)F`: the survivor count under setting [3] is 0 of 6.
Consider `O=C1CN2CCC1CC2`, for which the survivor count (T/C endpoint: mean survival time, dose: 400.0 mg/kg/injection, schedule: Q04DX003 (ip), vehicle: saline) is 0 of 6.
Take `C=C1C(=O)O[C@@H]2C[C@@]3(C)CCC[C@H](C)C3=C[C@H]12`: under setting [2], the survivor count is 0 of 6.
Turning to `O=C(CCC(O)c1ccccc1)c1ccccc1` (configuration not stated), under “T/C endpoint: mean survival time, dose: 400.0 mg/kg/injection, schedule: Q04DX002 (ip), vehicle: saline with Tween-80”, the survivor count is 3 of 3.
Turning to `CC(C)(C)C1=CC(=O)C(C(C)(C)C)=CC1=O`, the survivor count under setting [4] is 0 of 6.
Turning to `CS/C([S-])=N/[NH-].CS/C([S-])=N/[NH-].[Ni]`, the survivor count is 6 of 6 (T/C endpoint: mean survival time, dose: 6.25 mg/kg/injection, schedule: Q01DX009 (ip), vehicle: saline with Tween-80); 3 of 6 (T/C endpoint: mean survival time, dose: 12.5 mg/kg/injection, schedule: Q01DX009 (ip), vehicle: saline with Tween-80); 2 of 6 (T/C endpoint: mean survival time, dose: 25.0 mg/kg/injection, schedule: Q01DX001 (ip), vehicle: saline with Tween-80); 0 of 6 (T/C endpoint: mean survival time, dose: 50.0 mg/kg/injection, schedule: Q01DX001 (ip), vehicle: saline with Tween-80); 1 of 6 (T/C endpoint: mean survival time, dose: 100.0 mg/kg/injection, schedule: Q01DX001 (ip), vehicle: saline with Tween-80); 0 of 6 under setting [5]. In addition, the survivor count under setting [4] is reported as 0 of 6.
In the case of `C[C@H](N)C(=O)N[C@@H]1[C@H]2C(=C(O)C[C@@H](O)[C@@H]2O)C(=O)O[C@@H]1C`, the T/C (T/C endpoint: mean survival time, dose: 400.0 mg/kg/injection, schedule: Q01DX007 (ip), vehicle: saline) is 135 % of control; the T/C under setting [2] is 131 % of control; the T/C (T/C endpoint: median survival time, dose: 300.0 mg/kg/injection, schedule: Q01DX009 (ip), vehicle: saline) is 128 % of control; the T/C (T/C endpoint: median survival time, dose: 600.0 mg/kg/injection, schedule: Q01DX009 (ip), vehicle: saline) is 140 and 149 % of control. Moreover, the survivor count (T/C endpoint: median survival time, dose: 2400.0 mg/kg/injection, schedule: Q01DX009 (ip), vehicle: saline) is 4 of 10.
For `CCCCn1ccnc1C`, the survivor count is, setting by setting: (T/C endpoint: mean survival time, dose: 50.0 mg/kg/injection, schedule: Q01DX009 (ip), vehicle: saline) 1 of 6; (T/C endpoint: mean survival time, dose: 50.0 mg/kg/injection, schedule: Q04DX003 (ip), vehicle: saline) 6 of 6; (T/C endpoint: mean survival time, dose: 100.0 mg/kg/injection, schedule: Q01DX009 (ip), vehicle: saline) 0 of 6; (T/C endpoint: mean survival time, dose: 100.0 mg/kg/injection, schedule: Q04DX003 (ip), vehicle: saline) 0 of 6; (T/C endpoint: mean survival time, dose: 200.0 mg/kg/injection, schedule: Q01DX009 (ip), vehicle: saline) 0 of 6; (T/C endpoint: mean survival time, dose: 200.0 mg/kg/injection, schedule: Q04DX003 (ip), vehicle: saline) 0 of 6.
On to `CN(C)C1=NC1(C)C.CN(C)C1=NC1(C)C.[Cl][Pd][Cl]`, for which the survivor count (T/C endpoint: mean survival time, dose: 200.0 mg/kg/injection, schedule: Q04DX003 (ip), vehicle: distilled water + Tween-80) is on record as 1 of 5.
With `COc1ccc2c(NCCCCCCCCNc3c4ccccc4nc4cc(OC)ccc34)c3ccccc3nc2c1`, the T/C by setting is: (T/C endpoint: mean survival time, dose: 0.93 mg/kg/injection, schedule: Q01DX009 (ip), vehicle: distilled water + alcohol) 136 % of control; (T/C endpoint: mean survival time, dose: 1.87 mg/kg/injection, schedule: Q01DX009 (ip), vehicle: distilled water + alcohol) 139 % of control; under setting [6], 113, 123, 128 % of control. For the same compound, the survivor count (T/C endpoint: mean survival time, dose: 0.94 mg/kg/injection, schedule: Q01DX009 (ip), vehicle: distilled water + alcohol) is recorded as 0 of 10; the survivor count under setting [6] is 6 of 10; the survivor count (T/C endpoint: mean survival time, dose: 7.5 mg/kg/injection, schedule: Q01DX009 (ip), vehicle: distilled water + alcohol) is listed as 2 of 10, 2 of 6, 6 of 6; the survivor count (T/C endpoint: mean survival time, dose: 15.0 mg/kg/injection, schedule: Q01DX009 (ip), vehicle: distilled water + alcohol) is given as 2 of 6; the survivor count (T/C endpoint: mean survival time, dose: 30.0 mg/kg/injection, schedule: Q01DX009 (ip), vehicle: distilled water + alcohol) is given as 0 of 6; the survivor count (T/C endpoint: median survival time, dose: 8.0 mg/kg/injection, schedule: Q01DX009 (ip), vehicle: distilled water + alcohol) is listed as 7 of 10. Also, the survivor count (T/C endpoint: median survival time, dose: 16.0 mg/kg/injection, schedule: Q01DX009 (ip), vehicle: distilled water + alcohol) was 1 of 10.
With `CC(=O)Nc1cccc(C)n1`, the survivor count (T/C endpoint: mean survival time, dose: 300.0 mg/kg/injection, schedule: Q01DX001 (ip), vehicle: saline) is on record as 2 of 6.
Take `CN1CCN=C1c1ccc(NC(=O)c2ccc(C(=O)Nc3ccc(C4=NCCN4C)cc3)c(N)c2)cc1`: the survivor count is given as 1 of 6 (T/C endpoint: mean survival time, dose: 9.0 mg/kg/injection, schedule: Q01DX Z (ip), vehicle: water); 0 of 6 (T/C endpoint: mean survival time, dose: 12.0 mg/kg/injection, schedule: Q01DX Z (ip), vehicle: water); 0 of 6 (T/C endpoint: mean survival time, dose: 24.0 mg/kg/injection, schedule: Q01DX Z (ip), vehicle: water); 0 of 6 (T/C endpoint: mean survival time, dose: 48.0 mg/kg/injection, schedule: Q01DX Z (ip), vehicle: water).
`CC(C)=NNC(=O)CC(=O)NN=C(C)C`: for the setting “T/C endpoint: mean survival time, dose: 400.0 mg/kg/injection, schedule: Q01DX009 (ip), vehicle: saline sonified”, the T/C is 130 % of control [5 of 6 alive].
Regarding `CCOC(=O)CN1C(=O)NC(c2ccccc2)(c2ccccc2)C1=O`, under setting [3], the survivor count is given as 5 of 6.
As to `O=C=Nc1ccc(N=Nc2ccccc2)cc1`, the survivor count under setting [5] is on record as 6 of 6.
With `CC1(C)CN1P(=S)(N1CC1(C)C)N1CC1(C)C` (configuration not stated), where the note is “T/C endpoint: mean survival time, dose: 225.0 mg/kg/injection, schedule: Q01DX001 (ip), vehicle: other”, the T/C is 142 % of control. Moreover, the survivor count (T/C endpoint: mean survival time, dose: 500.0 mg/kg/injection, schedule: Q01DX001 (ip), vehicle: other) was 3 of 6.
For the compound `O=c1[nH]c(-c2ccccc2)nc(-c2ccc(Cl)cc2)c1CCO`, the survivor count under setting [7] is reported as 4 of 6.
For `O=[N+]([O-])c1cccc(C=Nc2ccc3c(c2)C(Br)c2ccccc2-3)c1` (configuration not stated), under setting [8], the survivor count is reported as 5 of 6.
With `C(=C\c1ccccn1)/c1ccccc1`, the survivor count under setting [1] is 1 of 6.
As to `COC1=C(C)C(=O)C2=C(C1=O)C1C3CC4=C(C(=O)C(OC)=C(C)C4=O)C(CNC(=O)C(C)=O)N3C(C#N)C(C2)N1C` (configuration not stated), the survivor count (T/C endpoint: median survival time, dose: 2.0 mg/kg/injection, schedule: Q01DX009 (ip), vehicle: Klucel (hydroxypropylcellulose) (HPC)) is listed as 4 of 6; the survivor count (T/C endpoint: median survival time, dose: 4.0 mg/kg/injection, schedule: Q01DX009 (ip), vehicle: Klucel (hydroxypropylcellulose) (HPC)) was 0 of 6; the survivor count (T/C endpoint: median survival time, dose: 2000.0 micrograms/kg/injection, schedule: Q01DX009 (ip), vehicle: Klucel (hydroxypropylcellulose) (HPC)) is 0 of 6.
With `O=C(c1ccccc1)C(Cl)Cl`, the survivor count under setting [3] is 0 of 6.
For `O=S(=O)(O)SCCN1CCCCC1`, the survivor count is recorded as 5 of 6 under setting [7]; 0 of 6 (T/C endpoint: mean survival time, dose: 200.0 mg/kg/injection, schedule: Q04DX003 (ip), vehicle: saline with Tween-80); 0 of 6 under setting [8].
For `COc1ccc(C2C(C(C)=O)=C(C)NC(C)=C2C(C)=O)cc1`, under setting [8], the survivor count is reported as 6 of 6.
